# Literature values, collected in EP1272854B1, “METHOD FOR DETECTING A HORMONE DISRUPTING ACTIVITY OF ENVIRONMENTAL POLLUTANTS” (Meulenberg, Petronella Mariette Maria, priority 2000, dated 2001).
# At least one compound was matched to its structure with a doubt left.
# Tested on: SHBG (post partum serum)
# Conditions: competition with 3H-5-alpha-DHT; cited from earlier work
structure (smiles),measurement,value
ClC1C(Cl)C(Cl)C(Cl)C(Cl)C1Cl (stereo not shown) [hexachloro-cyclohexane],binding to SHBG,showed binding
